From PubChem BioAssay AID2073 (Sanford-Burnham Center for Chemical Genomics, 2009)
The whole screen tested about 290,000 compounds, of which about 570 (0.2%) were called active. The inconclusive results got no clear call from the source; some entries with a clear call stand among them for comparison. Rule as the data show it: active = inhibition mostly above about 51% (no sharp cut-off); inconclusive = no clear call, values can overlap the other calls; inactive = mostly below about 53%.

Protein sequences, listed by entry. Tags and fused reporters are not part of them.
UniProt Q00975, whole entry, looked up: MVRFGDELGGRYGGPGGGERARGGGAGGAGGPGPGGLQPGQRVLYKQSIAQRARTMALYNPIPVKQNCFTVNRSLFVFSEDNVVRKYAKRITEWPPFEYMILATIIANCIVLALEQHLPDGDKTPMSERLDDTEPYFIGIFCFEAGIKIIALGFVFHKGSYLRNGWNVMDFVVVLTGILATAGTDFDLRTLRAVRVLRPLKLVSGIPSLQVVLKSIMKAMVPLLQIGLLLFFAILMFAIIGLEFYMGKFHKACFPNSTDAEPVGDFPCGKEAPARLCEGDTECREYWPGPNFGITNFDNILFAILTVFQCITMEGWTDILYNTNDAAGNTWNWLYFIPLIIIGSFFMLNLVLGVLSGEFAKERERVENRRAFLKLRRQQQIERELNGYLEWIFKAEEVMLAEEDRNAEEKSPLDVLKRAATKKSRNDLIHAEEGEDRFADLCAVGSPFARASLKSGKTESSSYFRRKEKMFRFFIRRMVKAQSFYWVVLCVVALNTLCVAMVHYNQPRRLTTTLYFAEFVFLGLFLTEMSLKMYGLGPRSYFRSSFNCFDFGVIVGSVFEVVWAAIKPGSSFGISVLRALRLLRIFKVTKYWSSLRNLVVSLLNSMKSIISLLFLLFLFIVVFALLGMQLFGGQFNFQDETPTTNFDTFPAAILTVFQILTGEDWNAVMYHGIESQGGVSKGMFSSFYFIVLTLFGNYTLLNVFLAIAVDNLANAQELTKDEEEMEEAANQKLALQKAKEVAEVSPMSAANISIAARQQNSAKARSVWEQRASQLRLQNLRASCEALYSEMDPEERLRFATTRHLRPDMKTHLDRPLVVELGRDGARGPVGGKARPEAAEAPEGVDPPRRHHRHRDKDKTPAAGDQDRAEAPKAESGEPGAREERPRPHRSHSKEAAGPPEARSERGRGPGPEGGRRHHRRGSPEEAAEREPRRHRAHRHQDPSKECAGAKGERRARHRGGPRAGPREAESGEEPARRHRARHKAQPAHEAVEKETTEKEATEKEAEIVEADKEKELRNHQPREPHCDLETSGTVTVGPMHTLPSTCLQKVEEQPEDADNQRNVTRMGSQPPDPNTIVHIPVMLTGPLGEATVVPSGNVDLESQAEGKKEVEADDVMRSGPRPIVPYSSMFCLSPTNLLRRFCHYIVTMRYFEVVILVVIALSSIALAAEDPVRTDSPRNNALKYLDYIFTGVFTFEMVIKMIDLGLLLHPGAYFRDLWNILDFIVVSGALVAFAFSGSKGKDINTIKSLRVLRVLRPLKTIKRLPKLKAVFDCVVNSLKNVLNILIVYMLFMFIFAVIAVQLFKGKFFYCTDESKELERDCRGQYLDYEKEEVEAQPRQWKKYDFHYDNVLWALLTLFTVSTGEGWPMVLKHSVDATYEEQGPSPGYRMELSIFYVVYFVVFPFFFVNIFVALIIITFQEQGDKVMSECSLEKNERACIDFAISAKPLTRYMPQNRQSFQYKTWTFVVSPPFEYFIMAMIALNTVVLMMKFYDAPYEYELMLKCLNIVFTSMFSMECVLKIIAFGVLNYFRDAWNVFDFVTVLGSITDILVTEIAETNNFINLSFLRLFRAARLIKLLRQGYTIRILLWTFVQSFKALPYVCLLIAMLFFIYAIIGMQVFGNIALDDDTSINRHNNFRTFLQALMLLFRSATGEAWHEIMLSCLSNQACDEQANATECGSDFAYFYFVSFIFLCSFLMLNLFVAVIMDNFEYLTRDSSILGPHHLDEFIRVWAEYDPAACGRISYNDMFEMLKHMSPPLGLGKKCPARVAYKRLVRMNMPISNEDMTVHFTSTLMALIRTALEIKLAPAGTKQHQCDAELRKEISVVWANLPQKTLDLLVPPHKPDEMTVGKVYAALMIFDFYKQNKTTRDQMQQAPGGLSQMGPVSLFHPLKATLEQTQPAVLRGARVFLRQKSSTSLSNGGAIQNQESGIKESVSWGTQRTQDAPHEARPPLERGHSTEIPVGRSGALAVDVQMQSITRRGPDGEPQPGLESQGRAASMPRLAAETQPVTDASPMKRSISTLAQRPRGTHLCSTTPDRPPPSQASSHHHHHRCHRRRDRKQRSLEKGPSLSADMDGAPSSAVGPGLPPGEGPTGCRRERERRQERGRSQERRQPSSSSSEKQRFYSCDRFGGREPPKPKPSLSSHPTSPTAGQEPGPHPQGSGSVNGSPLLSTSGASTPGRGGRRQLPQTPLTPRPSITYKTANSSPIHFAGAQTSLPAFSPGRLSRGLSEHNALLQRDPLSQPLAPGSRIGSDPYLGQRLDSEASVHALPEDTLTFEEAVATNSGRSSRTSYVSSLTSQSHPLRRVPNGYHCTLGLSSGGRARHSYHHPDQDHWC

Biological target: Voltage-dependent N-type calcium channel subunit alpha-1B (Homo sapiens) (UniProt Q00975)
Assay: disruptors of CaV2.2 binding to Mint1 – biochemical, HTRF (AID 2073)
Conditions: HTRF protein-protein interaction, Mint1-CaV2.2; at 20 µM; active compounds read high

inhibition, active:
COc1cc(Cl)c(C)cc1NC(=O)c1ccc2c(SCC(=O)O)c3c(nc2c1)CCCC3 53.2%

inhibition, inconclusive:
CCCCCCCCOC(=O)c1c(CSC(=N)N)n(C)c2cc(Br)c(OC(C)=O)cc12 67.1%
O=S(=O)(c1ccc(N2CCC(c3ccc(Cl)cc3)=N2)cc1)N(CCO)CCO 51.5%
CCc1nnnn1-c1ccc([N+](=O)[O-])cc1C 70.2%
COc1ccc(N=NC2=C(O)CC(C)(C)CC2=O)cc1 50%
Cc1nnsc1C(=O)NC1CCCCC1 54%
c1ccc(CCN(Cc2ccccc2)C2CCN(C3CCCC3)CC2)cc1 50.1%
COc1ccc(-c2cc(=O)c3c(OC)c(OC)c(OC)c(OC)c3o2)cc1OC 59.9%
O=C(O)c1ccc(-c2ccc(/C=N/Nc3ccc([N+](=O)[O-])cc3)o2)cc1 51.5%
CCOc1ccc2nc(/N=C/c3nc(-c4ccccc4)oc3O)sc2c1 82.9%
OC(COc1ccc2ccccc2c1)Cn1ccnc1 (centres undefined) 52%
COc1cccc2cc3c(=O)oc4ccccc4c3nc12 58.7%
O=C(CSc1nc2c(c(=O)n1-c1ccc(Cl)cc1)SCC2)Nc1nccs1 58.7%
COc1cc([N+](=O)[O-])ccc1-c1ccc(/C=N\n2cnnc2)o1 63.3%
COc1ccc2c(c1)N(C)C(=O)CC(c1ccccc1)=N2 55.9%
O=C1CN(c2nc(-c3ccccc3)c3ccccc3n2)c2ccccc2N1 67.5%
COCCNC(=O)C(=O)c1c(-c2ccccc2)[nH]c2ccccc12 73.3%
Cc1[nH]c2ccccc2c1/C=C(\C#N)C(=O)NCC1CCCO1 (centres undefined) 60.7%
Brc1cc(/C=N/n2cnnc2)oc1Br 56.1%
COc1cc(/C=C2\SC(=S)N(N3CCOCC3)C2=O)cc(OC)c1OC 51.3%
CC(C)(C)N(Cc1ccccc1)C(=O)COC(=O)CN1C(=O)C2CC=CCC2C1=O (centres undefined) 67.3%
NC(=O)CSc1nnc2ccc(-c3ccco3)nn12 57%
O=C(CC1SC(=Nc2ccccc2)N(CCc2c[nH]c3ccccc23)C1=O)Nc1ccccc1F (centres undefined) 51.7%
Cc1ccc(-n2nc3cc(C)c(NC(=S)NC(=O)/C=C/c4ccco4)cc3n2)cc1 56.1%
Oc1ccc(C=Nc2cccc3ccccc23)c(O)c1 53.6%
Cc1cccc(C(=O)NCC(=O)N2CCN(c3ccc(Cl)cc3)CC2)c1 56.6%
COc1cc(OC)c(C2=NOC(C(=O)Nc3cc(C)nn3-c3ccccc3)C2)cc1Cl (centres undefined) 64.7%
CC(=O)Nc1ccc(-c2nc3ccc(NC(C)=O)cc3o2)cc1 51.4%
Cn1nccc1C(=O)N1CCCC(C(=O)c2cccc3ccccc23)C1 (centres undefined) 59.4%
CC(C)NC(=S)NC(=O)c1ccc(Cl)cc1Cl 51.5%
COc1ccc(C(=O)ON=C2C=C(C)C(=O)C(C)=C2)cc1 66.2%
Brc1cc(Br)c2ncnc(N3CCCCC3)c2c1 62.5%
O=c1c2ccccc2nnn1COc1cccc2ccccc12 72.9%
COc1ccc(CNC(=O)CCCCCNC(=O)N2CCn3c2nc2ccccc23)cc1 60%
Cc1ccn2cc(CCNC(=O)Cc3cccs3)nc2c1 71.5%
CC(C)(C)n1ncc2c(=O)n(CC(=O)Nc3ccc4c(c3)OCCO4)cnc21 53.4%
CC(=O)Nc1ccc(C(F)(F)F)cc1Cl 73.3%
O/N=C/c1ccnc(SCc2ccc(Cl)cc2)n1 63.4%
Cc1ccccc1NC(=O)Nc1nnc(CC(=O)NCc2ccccc2)s1 52.4%
COc1ccc(C)cc1NC(=S)NN1CCN(C)CC1 89.2%
C=CCn1c(SCC(N)=O)nc2scc(-c3ccc(C)o3)c2c1=O 67.9%
CSc1nc(N(C)CCO)c2sc3nc(-c4ccco4)c4c(c3c2n1)CCC4 66.8%
NC(=S)N/N=C\c1c(OCc2ccccc2Cl)ccc2ccccc12 61%
O=C(CSc1ncnc2c1oc1ccccc12)Nc1cccc(Cl)c1 51.6%
CCOC(=O)c1c(NC(=O)CSc2nnc(C)s2)sc2c1CCC(C)C2 (centres undefined) 59.5%
Cc1cc(Nc2ccc(F)c(F)c2)nc(-c2ccccc2O)n1 54.9%
O=S(=O)(c1ccccc1)N1CCN(c2ncccn2)CC1 69.9%
CCOc1ccc(CNC(=O)c2ccc(NC(=O)C3=CSCCO3)cc2)cc1 68.4%

A run of entries from the list above, as a working copy:
inhibition, inconclusive:
CC(C)(C)n1ncc2c(=O)n(CC(=O)Nc3ccc4c(c3)OCCO4)cnc21 53.4%
CC(=O)Nc1ccc(C(F)(F)F)cc1Cl 73.3%
O/N=C/c1ccnc(SCc2ccc(Cl)cc2)n1 63.4%

Following part:

inhibition, inactive:
O=C(/C=C/c1ccc(Br)o1)NCc1ccccc1 76.8%
CC(=O)c1cccc(Nc2nc(-c3ccccc3)cs2)c1 0.5%
Cc1cc(C)nc(Nc2ncc(O)n2-c2ccc(C)c(Cl)c2)n1 6%
CCCOc1ccc(-c2cc(C(F)(F)F)c(C#N)c(SCC(=O)O)n2)cc1 35.3%
Cc1[nH]n(-c2ccccc2)c(=S)c1C=Nc1cccc([N+](=O)[O-])c1 34.3%
O=C(CCN1C(=O)S/C(=C\c2ccccc2)C1=O)Nc1ccc(S(=O)(=O)Nc2nccs2)cc1 -6.5%
Nc1nc2c(s1)CCc1ccccc1-2 -30.6%
Cc1ccc(Nc2nc(-c3c(C)nc4ncccn34)cs2)cc1 7.5%
Cc1nc2c(c(=O)n1Cc1ccccc1Cl)c1nc3ccccc3nc1n2Cc1ccco1 38.1%
CN1CCN(c2ccccc2NC(=O)c2cccc(OCc3ccccc3)c2)CC1 19%
COc1cccc2[nH]c3ccccc3c(=O)c12 30.8%

Three compounds from above, sorted by length of the SMILES, largest number first:
inhibition, inactive:
CN1CCN(c2ccccc2NC(=O)c2cccc(OCc3ccccc3)c2)CC1 19%
CC(=O)c1cccc(Nc2nc(-c3ccccc3)cs2)c1 0.5%
O=C(/C=C/c1ccc(Br)o1)NCc1ccccc1 76.8%
